# Results from one PubChem assay

From PubChem BioAssay record AID1159506 (NCATS, 2015).

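Genome-wide siRNA knockdown in TC32 Ewing sarcoma cells, comparing luciferase light from an NR0B1-promoter reporter with a CMV-promoter reporter 48 hours after transfection.
Each siRNA was applied at 20 nM.
A z-score of the log NR0B1-over-CMV signal, less the median of siRNAs with the same seed; more negative means a stronger specific loss of the NR0B1 reporter.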

The strongest results of the screen are mostly left out here.
Sequences are the guide (antisense) strand, without overhang.

siRNA,target gene,seed-corrected z-score
UAUUGUAGCCCAUAGAGUG,EFCAB7,0.1571
UAAUCAGUACCUUGUGAGC,MEI1,0.7699
UUCGGAAAAUCAAAAAUCC,TUBAL3,0.231
UCUUUGUCCACUCGAAGGC,CAMSAP3,0.08341
UGUGGUUUCAACAUCAUUC,STON1,-0.2226
UUUGAGUCGAAUGGGAUGG,SLC22A25,1.285
UACCAUUGCUGCUUGAUUG,TBRG4,-0.03183
UCAAUGUCCGUUUCACAGC,NELL2,-0.0453
UCUCCGACUGCAGAUGAGC,LINC00610,-0.1728
AUUGUUUACAUUCUACCUG,MIR503HG,1.357
AAUGUAAAUGCAAAUGACC,NXPH2,0.75
UUGUUGGUCAAGUCGAUGA,LCN9,0.3703
AGAUCUACUACGAAGUUCC,TRAK2,1.437
UUGUUGUAAAUUUCGAAAC,NUP160,0.4707
AUUUGUCAAAUCGAUCUUC,TM9SF3,-1.022
UAUUGCUACACUGGAGAGG,PANX3,0.2002
UACCAGUUCUUACAAGUGC,POSTN,0.009183
UUUGGGACCAUAAAUGUCC,PLA2G4E,0.5209
UCAGGUCUUGGAUCUCAGC,THOC5,0.4715
AGAAUUACCCACCCGUUCC,NPDC1,0.6643
UUUCCUUAUCUUAUUAGGG,RPP38,-0.1913
UGAGAUAAAAUUGUGACAC,XPO7,1.171
AAUGGUUGAGAAACCUCCG,HNMT,0.5703
UGAGCGGUUCCUAACCAGC,ZNF579,-0.04909
UUUGCGUGAACUGAGUUGC,SENP8,0.3451
UUCUUUUUGCUGAAUGACU,PRCC,0.2566
UUUCCUUCCGAAUCCAUGC,RCC1,-0.1314
UUGACUGCAAUACUGCUCU,APBB3,-0.3964
UAAGGGUAUAGGGAGGGCU,ASIC3,-0.008923
UUAGGGAAGAUCUUGGGCC,GPR179,0.2121
UGGUUUUCUACAUUGUUGC,CTTNBP2NL,0.5965
UAGGCGGAGAAAAAGGACC,BCL2L10,-0.4042
AAUAGAUCAUUGUAAUAGC,ERICH3,-0.4291
AACGGGAUAAUGAAAUGAG,AMBRA1,0.08369
UACUUAGUAGAAUUCCACC,MRPL48,0.01693
UUCAAGGUUUGGAUCAUGC,BVES,0.2032
UUUGAUGCUAUAUGAAUUC,UBE2V1,0.06108
UCUCGGGUAACAUACUGCG,FAM83H,-0.07227
UCUUGUUUGAAUCAACUCC,STRA13,0.3554
UCUUUUUCAAGUAGAGGAG,IL32,0.5423
UUUCACAACCGUCUGUUCC,WNT2B,-0.1555
UUCCUGUCACUGCCGAUUC,NPR3,0.6219
UUUGCUAGGAUUGUGCUGG,RNPC3,-0.2627
UUGCAUCAGACUGAUAGCC,ADAMTS5,0.1032
UUUGAAACAAGUGAGAGGC,EHMT1-IT1,-1.001
AUACUUAGUCAUGUCGGCC,SAMD3,-1.189
UUCUUGUCCAUAGUAGUGG,NPAP1,0.3698
ACACUUAGGAGUACACUUG,LCE5A,-0.3909
UAGUAACUCGUUCCAAUCC,DARS,-0.8577
UAUAUCAAAGAUUGUAUCC,ZNF583,0.1665
UCUUUUGAAAUUCGGUCCC,C1orf109,0.5713
UUCUGACAUAUAUAGGUGG,CCDC181,-1.192
UUCCAUACUACUAACAGAC,STRAP,0.006646
ACUUUUGCUCGUUUCACUC,PRM2,-0.728
UUCCUAAUCCAAGUGAUCC,FGFR1OP,0.01807
UUGGUGAUUCGGGUGCAGC,FBXL14,-0.4359
UCGCUUUGAAUAGAUUUGG,DPY19L4,0.0293
UGGGUAGUGGGUAAAGUGG,ISX,0.3363
UGGGUUCCUACCAAAGAGC,TTYH2,-0.2859
GCUGAAAUACACUAUGACC,SPDYE7P,0.4572
UUUAUCCCAAAAUCCGUAG,HAPLN1,-0.7064
UUUCGAAUCAGCUCAUUCU,CCDC33,0.8786
UUUUGGUGCAGCACGUUGC,AIM2,-1.165
UCCUUGAUUUGGGCUAUGG,SIK2,-0.5266
UUAAGGUAUAUGAGAGGUC,ELL2,0.2482
UACUCUAAUAGACUCAUAG,FSCB,-0.7975
UCCUCUUCCAGUCUAGUGC,LOC403323,-0.7715
UGAUUUGUCACAACUCAUG,BCL2L11,0.9801

Some entries from above, unchanged:

| siRNA | target gene | seed-corrected z-score |
|---|---|---|
| `UUCUGACAUAUAUAGGUGG` | CCDC181 | -1.192 |
| `UUUUGGUGCAGCACGUUGC` | AIM2 | -1.165 |
| `UUCUUGUCCAUAGUAGUGG` | NPAP1 | 0.3698 |
| `UCGCUUUGAAUAGAUUUGG` | DPY19L4 | 0.0293 |
| `UUUGCGUGAACUGAGUUGC` | SENP8 | 0.3451 |
| `AAUAGAUCAUUGUAAUAGC` | ERICH3 | -0.4291 |
| `UUUCGAAUCAGCUCAUUCU` | CCDC33 | 0.8786 |